Values of other authors in patent publication US20110274624A1, “CONTRAST AGENTS IN POROUS PARTICLES” (WILLIAM MARSH RICE UNIVERSITY, priority 2010, published 2011).
For at least one compound, name, drawing or mass did not settle the structure.

Compound	q (number of fast-exchanging inner-sphere water molecules)	Δ^2 (mean square zero field splitting energy)	τR (tumbling time) [ps]	τm (water residence lifetime) [ns]	τv (correlation time for splitting) [ps]
O=C([O-])CN(CCN(CC(=O)[O-])CC(=O)[O-])CCN(CC(=O)[O-])CC(=O)[O-].[Gd+3] [MAG, Gd-DTPA]	1	38 × 10^18 s^−2	54	143	25
O=C([O-])CN(CCN(CC(=O)[O-])CC(=O)[O-])CCN(CC(=O)[O-])C(COCc1ccccc1)C(=O)[O-].[Gd+3] (stereo not shown) [Gd-BOPTA]	1	30 × 10^18 s^−2	89	140	30
